Experimental data as given in the supplement of paper PMC9454738.
Some of the results follow. Repeats in this data set agree poorly, so a single value says little.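 Triple-negative MDA-MB-231 breast cancer cells and their brain-metastatic MDA-MB-231BRM derivative each stably expressed empty vector, full-length GLI1 or truncated tGLI1. CellTiter-Blue measured viability at 48 h relative to 1% DMSO vehicle. Compounds reducing viability 20% more in tGLI1 cells than in vector and GLI1 cells counted as tGLI1-selective.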

Assays:
Assay in all cases: cell viability relative to vehicle (DMSO) control (fraction); higher = more viable cells (less growth inhibition)
Conditions in all cases: treatment time 48 h
MDA-MB-231 GLI1 = tested on: MDA-MB-231 GLI1
MDA-MB-231 Vector = tested on: MDA-MB-231 Vector
MDA-MB-231 tGLI1 = tested on: MDA-MB-231 tGLI1
MDA-MB-231BRM GLI1 = tested on: MDA-MB-231BRM GLI1
MDA-MB-231BRM Vector = tested on: MDA-MB-231BRM Vector
MDA-MB-231BRM tGLI1 = tested on: MDA-MB-231BRM tGLI1

| Structure (SMILES) | cell viability (MDA-MB-231 GLI1; 0.05 µM) | cell viability (MDA-MB-231 GLI1; 0.5 µM) | cell viability (MDA-MB-231 GLI1; 5 µM) | cell viability (MDA-MB-231 Vector; 0.05 µM) | cell viability (MDA-MB-231 Vector; 0.5 µM) | cell viability (MDA-MB-231 Vector; 5 µM) | cell viability (MDA-MB-231 tGLI1; 0.05 µM) | cell viability (MDA-MB-231 tGLI1; 0.5 µM) | cell viability (MDA-MB-231 tGLI1; 5 µM) | cell viability (MDA-MB-231BRM GLI1; 0.05 µM) | cell viability (MDA-MB-231BRM GLI1; 0.5 µM) | cell viability (MDA-MB-231BRM GLI1; 5 µM) | cell viability (MDA-MB-231BRM Vector; 0.05 µM) | cell viability (MDA-MB-231BRM Vector; 0.5 µM) | cell viability (MDA-MB-231BRM Vector; 5 µM) | cell viability (MDA-MB-231BRM tGLI1; 0.05 µM) | cell viability (MDA-MB-231BRM tGLI1; 0.5 µM) | cell viability (MDA-MB-231BRM tGLI1; 5 µM) |
| --- | --- | --- | --- | --- | --- | --- | --- | --- | --- | --- | --- | --- | --- | --- | --- | --- | --- | --- |
| C=CC(=O)Nc1cccc(Nc2nc(Nc3ccc(OCCOC)cc3)ncc2F)c1 | 1.18 | 1.64 | 0.638 | 1.4 | 1.51 | 0.71 | 1.56 | 1.36 | 0.77 | 1 | 0.919 | 0.778 | 1.12 | 1.02 | 0.824 | 0.936 | 0.924 | 0.792 |
| CC(C)c1cnn2c(NCc3ccccc3)cc(NCCCCCCN)nc12 | 1.29 | 1.31 | 1.05 | 1.84 | 1.21 | 0.851 | 1.08 | 1.22 | 0.781 | 1.23 | 1.01 | 0.804 | 1.1 | 0.971 | 1.08 | 0.965 | 1.07 | 0.754 |
| COc1ccc(Cl)cc1NC(=O)Nc1cc(C)nc2ccccc12 | 1.23 | 1.86 | 1.04 | 0.66 | 0.603 | 0.492 | 0.725 | 0.774 | 0.642 | 0.447 | 0.422 | 0.204 | 0.58 | 0.525 | 0.229 | 0.745 | 0.605 | 0.45 |
| Nc1ncn([C@H]2C[C@H](O)[C@@H](CO)O2)c(=O)n1 [Decitabine] | 1.05 | 0.922 | 0.822 | 0.768 | 1.2 | 0.837 | 0.998 | 0.918 | 0.841 | 1 | 0.974 | 0.923 | 1.07 | 0.996 | 0.985 | 1.09 | 1.02 | 0.995 |
| O=C(Nc1ccc(-c2ccnc(Nc3ccc(N4CCOCC4)cc3)n2)cc1)C1CCCN1 (centres undefined) | 1.31 | 1.82 | 1.12 | 1.42 | 1.48 | 1.45 | 1.34 | 1.49 | 1.5 | 1.01 | 0.95 | 0.998 | 0.998 | 1.04 | 1.02 | 1.01 | 1.03 | 1.01 |
| CN(C)c1ccc(-c2nc3ncc(Cl)c(N4CCN(CC(=O)Nc5nccs5)CC4)c3[nH]2)cc1 | 1.01 | 0.822 | 0.271 | 0.938 | 0.807 | 0.449 | 0.972 | 0.89 | 0.599 | 1.1 | 1.2 | 1.1 | 1.18 | 0.999 | 0.724 | 0.686 | 1.14 | 0.992 |
| NC1(Cc2ccc(Cl)cc2)CCN(c2ncnc3[nH]ccc23)CC1 | 1.34 | 1.36 | 1.01 | 1.32 | 1.49 | 1.07 | 1.43 | 1.21 | 0.978 | 1.04 | 1.03 | 0.982 | 1.08 | 1.05 | 0.931 | 1.06 | 1.05 | 0.901 |
| Cc1cc2c(F)c(Oc3ncnn4cc(OC[C@@H](C)OC(=O)[C@H](C)N)c(C)c34)ccc2[nH]1 | 1.46 | 1.62 | 0.834 | 1.45 | 1.21 | 0.707 | 1.22 | 1.46 | 0.643 | 0.965 | 1 | 0.975 | 0.979 | 0.923 | 1.07 | 0.977 | 0.919 | 1.03 |
| O=C1NC(=O)[C@@H](c2cn3c4c(cccc24)CCC3)[C@@H]1c1c[nH]c2ccccc12 [Tivantinib (ARQ 197)] | 1.31 | 0.431 | 0.063 | 1.25 | 0.578 | 0.127 | 1.37 | 0.141 | 0.0903 | 1.05 | 1.22 | 0.919 | 1.09 | 1.24 | 0.906 | 1.07 | 1.2 | 0.791 |
| CC(C)(C)c1cc(NC(=O)Nc2ccc(-c3cn4c(n3)sc3cc(OCCN5CCOCC5)ccc34)cc2)no1 [Quizartinib (AC220)] | 1.28 | 1.18 | 1.56 | 1.98 | 1.42 | 1.22 | 0.551 | 1.25 | 1.45 | 1.32 | 0.574 | 1.11 | 0.738 | 0.944 | 0.721 | 0.631 | 1.1 | 0.509 |
| Cc1ccc(S(=O)(=O)/C=C/C#N)cc1 | 1.08 | 1.42 | 0.149 | 1.14 | 1.43 | 0.815 | 1.17 | 1.39 | 0.164 | 1.08 | 0.923 | 0.786 | 1.08 | 0.991 | 0.874 | 1.06 | 0.909 | 0.755 |
| CCC(=O)Nc1cccc(Oc2nc(Nc3ccc(N4CCN(C)CC4)cc3OC)ncc2Cl)c1 | 1.08 | 1.47 | 0.607 | 0.969 | 0.993 | 0.367 | 0.988 | 1.28 | 0.811 | 0.898 | 1 | 0.98 | 1.03 | 0.985 | 0.961 | 0.983 | 0.989 | 0.927 |
| CC[C@H](Nc1ncnc2[nH]cnc12)c1nc2cccc(F)c2c(=O)n1-c1ccccc1 [CAL-101 (Idelalisib, GS-1101)] | 0.337 | 0.212 | 1.04 | 0.402 | 0.282 | 1.06 | 0.388 | 0.228 | 1.01 | 0.958 | 1.03 | 1.14 | 0.951 | 1.01 | 1.01 | 0.925 | 0.964 | 1.11 |

Part of the list above, reduced to cell viability (MDA-MB-231BRM Vector; 0.05 µM):
Structure (SMILES)	cell viability (MDA-MB-231BRM Vector; 0.05 µM)
C=CC(=O)Nc1cccc(Nc2nc(Nc3ccc(OCCOC)cc3)ncc2F)c1	1.12
CC(C)c1cnn2c(NCc3ccccc3)cc(NCCCCCCN)nc12	1.1
